Test results from publication doi:10.1101/2020.09.14.296160.
These are yes or no findings as the source states them, for the method shown. Some results given as binding are weak or reduced against the parent protein; the word gives no strength. Blank lines part the entries; values can stand above or below the substance they belong to.

The chains behind the UniProt entries cited, without tags or fusion partners.
UniProt Q96B26: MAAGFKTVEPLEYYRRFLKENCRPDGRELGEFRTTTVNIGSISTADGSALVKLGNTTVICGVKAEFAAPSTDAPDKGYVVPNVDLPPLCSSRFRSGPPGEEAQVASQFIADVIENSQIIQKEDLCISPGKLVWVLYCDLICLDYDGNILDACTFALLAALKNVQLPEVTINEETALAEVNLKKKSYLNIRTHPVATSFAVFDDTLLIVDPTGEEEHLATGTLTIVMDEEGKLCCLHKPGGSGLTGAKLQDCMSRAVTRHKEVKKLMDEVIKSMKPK
UniProt Q9Y6M1: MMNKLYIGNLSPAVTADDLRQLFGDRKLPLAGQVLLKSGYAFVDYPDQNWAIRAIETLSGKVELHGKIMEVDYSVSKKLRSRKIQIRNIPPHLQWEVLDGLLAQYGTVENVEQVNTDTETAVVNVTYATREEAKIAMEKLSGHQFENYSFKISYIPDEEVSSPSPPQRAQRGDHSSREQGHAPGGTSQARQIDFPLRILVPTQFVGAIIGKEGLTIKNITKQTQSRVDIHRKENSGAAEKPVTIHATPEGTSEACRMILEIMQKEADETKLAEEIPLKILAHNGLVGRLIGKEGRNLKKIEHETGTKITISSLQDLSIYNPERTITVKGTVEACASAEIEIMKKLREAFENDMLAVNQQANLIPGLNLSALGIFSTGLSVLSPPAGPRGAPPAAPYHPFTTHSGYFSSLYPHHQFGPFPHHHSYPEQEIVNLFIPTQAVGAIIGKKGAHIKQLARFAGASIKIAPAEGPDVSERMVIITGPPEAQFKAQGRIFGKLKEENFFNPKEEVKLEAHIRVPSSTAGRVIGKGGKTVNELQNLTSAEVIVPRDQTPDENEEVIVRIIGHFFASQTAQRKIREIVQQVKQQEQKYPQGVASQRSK
UniProt P26599: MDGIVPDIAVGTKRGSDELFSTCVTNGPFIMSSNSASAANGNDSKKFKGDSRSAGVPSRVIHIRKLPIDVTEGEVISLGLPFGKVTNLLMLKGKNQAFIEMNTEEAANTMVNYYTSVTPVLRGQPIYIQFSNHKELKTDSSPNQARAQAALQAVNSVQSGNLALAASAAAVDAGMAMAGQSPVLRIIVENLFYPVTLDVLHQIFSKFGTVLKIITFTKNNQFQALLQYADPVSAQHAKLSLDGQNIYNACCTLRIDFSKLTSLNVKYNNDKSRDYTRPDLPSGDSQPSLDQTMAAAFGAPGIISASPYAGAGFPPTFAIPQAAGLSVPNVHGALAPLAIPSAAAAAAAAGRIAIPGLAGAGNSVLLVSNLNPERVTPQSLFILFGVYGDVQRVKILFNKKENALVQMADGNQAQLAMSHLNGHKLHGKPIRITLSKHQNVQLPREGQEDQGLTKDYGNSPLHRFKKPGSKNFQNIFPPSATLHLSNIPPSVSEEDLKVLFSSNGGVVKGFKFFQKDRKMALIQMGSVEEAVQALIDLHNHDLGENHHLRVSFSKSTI
UniProt Q71RC2: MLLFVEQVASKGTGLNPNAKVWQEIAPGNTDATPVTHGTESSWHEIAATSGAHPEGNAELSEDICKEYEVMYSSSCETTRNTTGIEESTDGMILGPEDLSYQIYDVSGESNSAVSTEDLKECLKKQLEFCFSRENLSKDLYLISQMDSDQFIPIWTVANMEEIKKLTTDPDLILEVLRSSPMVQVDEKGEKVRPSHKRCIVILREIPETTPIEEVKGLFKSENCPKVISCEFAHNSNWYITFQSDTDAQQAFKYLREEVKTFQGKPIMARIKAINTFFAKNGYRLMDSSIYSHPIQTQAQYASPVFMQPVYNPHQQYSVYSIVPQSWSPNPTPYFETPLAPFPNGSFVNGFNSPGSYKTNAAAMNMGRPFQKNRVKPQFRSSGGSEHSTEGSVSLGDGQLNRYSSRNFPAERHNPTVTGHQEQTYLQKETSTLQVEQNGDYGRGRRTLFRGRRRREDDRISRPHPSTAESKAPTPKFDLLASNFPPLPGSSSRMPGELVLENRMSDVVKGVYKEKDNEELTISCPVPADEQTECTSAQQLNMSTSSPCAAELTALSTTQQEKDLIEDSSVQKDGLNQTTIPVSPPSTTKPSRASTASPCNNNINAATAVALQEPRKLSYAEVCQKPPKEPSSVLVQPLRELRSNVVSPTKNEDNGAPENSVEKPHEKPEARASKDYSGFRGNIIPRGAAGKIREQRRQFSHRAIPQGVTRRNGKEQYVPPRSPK
UniProt O43809: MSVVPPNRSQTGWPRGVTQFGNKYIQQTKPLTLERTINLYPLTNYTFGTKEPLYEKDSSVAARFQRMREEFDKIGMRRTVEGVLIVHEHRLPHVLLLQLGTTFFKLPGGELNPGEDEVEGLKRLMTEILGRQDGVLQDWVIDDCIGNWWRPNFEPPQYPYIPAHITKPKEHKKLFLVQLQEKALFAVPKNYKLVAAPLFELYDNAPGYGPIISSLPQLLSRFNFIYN
UniProt P51116: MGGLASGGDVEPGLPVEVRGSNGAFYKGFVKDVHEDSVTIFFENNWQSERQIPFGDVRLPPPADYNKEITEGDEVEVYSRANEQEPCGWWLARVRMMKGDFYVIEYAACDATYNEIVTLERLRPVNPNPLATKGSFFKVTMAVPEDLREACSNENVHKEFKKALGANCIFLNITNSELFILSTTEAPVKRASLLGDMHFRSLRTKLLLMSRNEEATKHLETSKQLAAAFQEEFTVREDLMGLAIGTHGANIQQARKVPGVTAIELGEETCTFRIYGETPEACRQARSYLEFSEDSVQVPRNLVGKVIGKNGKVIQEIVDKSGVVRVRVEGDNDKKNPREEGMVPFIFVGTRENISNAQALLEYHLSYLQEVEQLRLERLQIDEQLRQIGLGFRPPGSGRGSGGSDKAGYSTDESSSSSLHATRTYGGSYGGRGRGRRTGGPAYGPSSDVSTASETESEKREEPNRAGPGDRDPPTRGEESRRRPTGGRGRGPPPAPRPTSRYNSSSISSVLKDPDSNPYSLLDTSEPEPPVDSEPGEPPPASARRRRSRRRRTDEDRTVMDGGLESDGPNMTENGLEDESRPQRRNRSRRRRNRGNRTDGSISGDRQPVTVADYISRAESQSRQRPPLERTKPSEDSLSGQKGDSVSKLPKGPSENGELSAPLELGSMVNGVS
UniProt P11940: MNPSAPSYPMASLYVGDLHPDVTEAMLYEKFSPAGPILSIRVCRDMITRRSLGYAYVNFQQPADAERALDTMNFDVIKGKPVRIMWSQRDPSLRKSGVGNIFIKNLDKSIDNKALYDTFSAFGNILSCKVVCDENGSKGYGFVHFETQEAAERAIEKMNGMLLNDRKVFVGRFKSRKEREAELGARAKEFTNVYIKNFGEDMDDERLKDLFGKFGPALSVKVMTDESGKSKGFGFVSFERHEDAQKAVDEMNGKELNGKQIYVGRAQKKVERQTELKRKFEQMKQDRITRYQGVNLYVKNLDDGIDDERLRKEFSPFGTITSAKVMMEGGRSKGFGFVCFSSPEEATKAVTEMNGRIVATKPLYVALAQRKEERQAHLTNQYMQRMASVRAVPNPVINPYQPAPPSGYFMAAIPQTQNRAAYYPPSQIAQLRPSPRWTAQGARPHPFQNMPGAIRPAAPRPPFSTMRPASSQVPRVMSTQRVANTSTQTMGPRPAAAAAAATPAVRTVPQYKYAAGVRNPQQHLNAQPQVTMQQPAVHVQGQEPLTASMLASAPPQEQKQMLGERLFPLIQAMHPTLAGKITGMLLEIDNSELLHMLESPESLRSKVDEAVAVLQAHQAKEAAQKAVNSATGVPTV
UniProt P98175: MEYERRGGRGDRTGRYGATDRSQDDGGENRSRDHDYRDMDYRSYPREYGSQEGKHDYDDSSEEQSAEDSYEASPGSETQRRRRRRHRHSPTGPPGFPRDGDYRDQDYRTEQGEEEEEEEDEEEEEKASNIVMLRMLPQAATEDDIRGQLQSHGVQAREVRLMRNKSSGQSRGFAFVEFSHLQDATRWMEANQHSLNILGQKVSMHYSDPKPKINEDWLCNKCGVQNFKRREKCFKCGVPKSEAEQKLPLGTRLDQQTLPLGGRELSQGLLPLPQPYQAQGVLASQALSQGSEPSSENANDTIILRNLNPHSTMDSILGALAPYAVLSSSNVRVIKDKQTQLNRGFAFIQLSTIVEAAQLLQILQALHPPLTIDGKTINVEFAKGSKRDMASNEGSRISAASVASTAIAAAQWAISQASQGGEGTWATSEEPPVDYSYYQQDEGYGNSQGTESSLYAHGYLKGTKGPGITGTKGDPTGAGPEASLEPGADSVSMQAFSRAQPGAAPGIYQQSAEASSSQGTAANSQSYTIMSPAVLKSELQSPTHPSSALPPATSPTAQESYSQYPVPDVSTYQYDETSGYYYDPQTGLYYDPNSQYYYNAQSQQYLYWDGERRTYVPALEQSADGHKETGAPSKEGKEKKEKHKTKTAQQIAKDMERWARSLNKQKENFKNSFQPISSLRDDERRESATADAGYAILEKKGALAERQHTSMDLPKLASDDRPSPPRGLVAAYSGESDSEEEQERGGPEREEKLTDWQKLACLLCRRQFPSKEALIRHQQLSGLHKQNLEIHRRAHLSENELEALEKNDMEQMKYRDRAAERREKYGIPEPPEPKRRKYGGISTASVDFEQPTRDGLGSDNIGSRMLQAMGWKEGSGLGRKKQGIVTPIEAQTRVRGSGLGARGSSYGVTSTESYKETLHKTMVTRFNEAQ
UniProt Q9NRW3: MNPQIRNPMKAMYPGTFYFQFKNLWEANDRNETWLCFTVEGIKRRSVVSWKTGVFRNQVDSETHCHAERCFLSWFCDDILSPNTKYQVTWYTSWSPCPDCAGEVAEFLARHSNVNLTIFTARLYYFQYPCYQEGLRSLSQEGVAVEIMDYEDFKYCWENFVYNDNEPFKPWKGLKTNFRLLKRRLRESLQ
UniProt P61326: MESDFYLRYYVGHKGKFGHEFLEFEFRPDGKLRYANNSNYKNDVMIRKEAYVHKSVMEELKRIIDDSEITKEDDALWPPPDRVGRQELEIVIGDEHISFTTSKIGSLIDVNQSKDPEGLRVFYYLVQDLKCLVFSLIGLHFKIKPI
UniProt Q01844: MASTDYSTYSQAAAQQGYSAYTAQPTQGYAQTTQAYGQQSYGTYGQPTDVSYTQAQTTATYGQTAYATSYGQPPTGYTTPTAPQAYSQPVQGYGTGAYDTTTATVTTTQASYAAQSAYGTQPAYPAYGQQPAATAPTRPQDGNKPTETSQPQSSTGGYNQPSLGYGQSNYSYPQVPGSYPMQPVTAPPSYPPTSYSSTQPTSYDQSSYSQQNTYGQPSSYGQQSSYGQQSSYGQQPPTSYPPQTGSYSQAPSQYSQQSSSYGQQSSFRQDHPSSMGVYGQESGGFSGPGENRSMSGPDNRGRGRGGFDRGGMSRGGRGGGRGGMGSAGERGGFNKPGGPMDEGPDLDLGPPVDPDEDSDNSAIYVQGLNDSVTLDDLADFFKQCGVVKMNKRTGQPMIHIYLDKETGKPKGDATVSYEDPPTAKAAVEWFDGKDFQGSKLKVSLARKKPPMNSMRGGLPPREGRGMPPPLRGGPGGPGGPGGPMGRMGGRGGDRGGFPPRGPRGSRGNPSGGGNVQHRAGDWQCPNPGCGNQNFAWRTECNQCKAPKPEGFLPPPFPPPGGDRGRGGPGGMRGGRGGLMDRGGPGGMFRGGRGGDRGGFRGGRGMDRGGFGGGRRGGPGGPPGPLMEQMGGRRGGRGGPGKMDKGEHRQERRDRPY
UniProt P51114: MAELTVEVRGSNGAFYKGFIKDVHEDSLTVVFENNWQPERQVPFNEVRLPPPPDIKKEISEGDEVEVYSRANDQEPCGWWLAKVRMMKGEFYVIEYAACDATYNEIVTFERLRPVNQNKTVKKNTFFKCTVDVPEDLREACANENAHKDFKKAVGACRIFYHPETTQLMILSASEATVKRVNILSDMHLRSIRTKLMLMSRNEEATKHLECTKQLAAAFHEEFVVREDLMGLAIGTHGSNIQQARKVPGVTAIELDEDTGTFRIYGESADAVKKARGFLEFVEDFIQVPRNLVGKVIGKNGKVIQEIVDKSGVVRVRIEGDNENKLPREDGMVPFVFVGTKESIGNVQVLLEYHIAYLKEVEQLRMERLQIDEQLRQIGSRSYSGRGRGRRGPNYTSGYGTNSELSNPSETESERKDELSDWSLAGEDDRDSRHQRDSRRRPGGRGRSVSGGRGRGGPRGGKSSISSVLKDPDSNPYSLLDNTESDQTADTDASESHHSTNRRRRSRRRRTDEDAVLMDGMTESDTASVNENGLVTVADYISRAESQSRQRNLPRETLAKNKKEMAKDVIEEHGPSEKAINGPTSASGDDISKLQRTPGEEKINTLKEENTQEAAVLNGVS

Assays:
Experiment in all cases: two-hybrid
[1] = molecular target: T1, zinc-finger protein ZC3H8 (human) (UniProt Q8N5P1)
T1 sequence: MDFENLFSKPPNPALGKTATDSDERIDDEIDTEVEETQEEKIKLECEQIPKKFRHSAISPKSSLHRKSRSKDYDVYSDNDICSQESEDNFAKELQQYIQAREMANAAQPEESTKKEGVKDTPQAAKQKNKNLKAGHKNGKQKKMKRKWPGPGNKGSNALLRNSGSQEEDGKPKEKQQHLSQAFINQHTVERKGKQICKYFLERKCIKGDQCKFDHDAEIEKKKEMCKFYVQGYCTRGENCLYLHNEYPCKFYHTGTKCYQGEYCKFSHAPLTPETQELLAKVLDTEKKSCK

EXOSC8 (human) = EXOSC8 (human) (UniProt Q96B26)
IGF2BP2 (human) = IGF2BP2 (human) (UniProt Q9Y6M1)
RBFOX2 (human) = molecular target: T2, RBFOX2 (human) (UniProt O43251)
T2 sequence: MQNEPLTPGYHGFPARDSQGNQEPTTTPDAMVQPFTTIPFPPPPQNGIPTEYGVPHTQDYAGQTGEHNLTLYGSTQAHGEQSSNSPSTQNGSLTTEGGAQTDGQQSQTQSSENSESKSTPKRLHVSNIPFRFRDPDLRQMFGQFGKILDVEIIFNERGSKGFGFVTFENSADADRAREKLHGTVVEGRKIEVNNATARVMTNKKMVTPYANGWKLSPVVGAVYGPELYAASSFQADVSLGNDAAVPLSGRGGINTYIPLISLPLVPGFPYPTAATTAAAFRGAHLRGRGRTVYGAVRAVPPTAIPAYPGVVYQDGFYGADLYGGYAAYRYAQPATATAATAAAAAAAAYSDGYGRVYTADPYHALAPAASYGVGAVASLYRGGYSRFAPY

PCBP1 (human) = PCBP1 (human) (UniProt Q15365)
QKI (human) = molecular target: T3, QKI (human) (UniProt Q96PU8)
T3 sequence: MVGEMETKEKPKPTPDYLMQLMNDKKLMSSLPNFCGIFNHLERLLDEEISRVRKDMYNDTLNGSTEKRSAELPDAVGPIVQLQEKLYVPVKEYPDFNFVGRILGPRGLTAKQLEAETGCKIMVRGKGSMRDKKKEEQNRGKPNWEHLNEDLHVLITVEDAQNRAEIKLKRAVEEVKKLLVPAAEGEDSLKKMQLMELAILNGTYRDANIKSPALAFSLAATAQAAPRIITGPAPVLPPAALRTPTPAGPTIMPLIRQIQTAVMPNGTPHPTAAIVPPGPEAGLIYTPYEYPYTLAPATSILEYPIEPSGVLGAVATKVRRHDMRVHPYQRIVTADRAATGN

[2] = molecular target: T4, NEXT component RBM7 (human) (UniProt Q9Y580)
T4 sequence: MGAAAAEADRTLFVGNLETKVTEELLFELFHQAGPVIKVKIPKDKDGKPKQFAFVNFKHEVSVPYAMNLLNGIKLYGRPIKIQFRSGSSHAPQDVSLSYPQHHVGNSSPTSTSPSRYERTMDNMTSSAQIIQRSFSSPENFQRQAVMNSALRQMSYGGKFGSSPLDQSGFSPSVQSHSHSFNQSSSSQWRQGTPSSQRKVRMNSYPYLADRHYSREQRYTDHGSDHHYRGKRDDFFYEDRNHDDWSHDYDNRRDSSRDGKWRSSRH

PTBP1 (human) = PTBP1 (human) (UniProt P26599)
PTBP2 (human) = PTBP2 (human) (UniProt Q9UKA9)
LARP4 (human) = LARP4 (human) (UniProt Q71RC2)
[3] = molecular target: 3’end processing hydrolase NUDT21 (human) (UniProt O43809)
CPSF7 (human) = molecular target: T5, CPSF7 (human) (UniProt Q8N684)
T5 sequence: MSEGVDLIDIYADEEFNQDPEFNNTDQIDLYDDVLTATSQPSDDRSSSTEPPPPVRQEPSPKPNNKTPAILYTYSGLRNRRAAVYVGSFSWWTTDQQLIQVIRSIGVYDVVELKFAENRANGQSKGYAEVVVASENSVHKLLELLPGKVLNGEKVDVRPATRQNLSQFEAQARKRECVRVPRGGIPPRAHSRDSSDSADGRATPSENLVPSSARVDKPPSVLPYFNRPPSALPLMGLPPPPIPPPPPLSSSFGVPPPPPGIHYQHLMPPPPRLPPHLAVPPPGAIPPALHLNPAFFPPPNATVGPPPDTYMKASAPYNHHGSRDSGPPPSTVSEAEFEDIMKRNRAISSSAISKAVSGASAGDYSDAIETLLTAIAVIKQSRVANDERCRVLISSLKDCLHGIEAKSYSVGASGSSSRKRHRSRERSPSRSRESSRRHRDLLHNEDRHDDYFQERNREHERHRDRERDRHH

CSTF2T (human) = molecular target: T6, CSTF2T (human) (UniProt Q9H0L4)
T6 sequence: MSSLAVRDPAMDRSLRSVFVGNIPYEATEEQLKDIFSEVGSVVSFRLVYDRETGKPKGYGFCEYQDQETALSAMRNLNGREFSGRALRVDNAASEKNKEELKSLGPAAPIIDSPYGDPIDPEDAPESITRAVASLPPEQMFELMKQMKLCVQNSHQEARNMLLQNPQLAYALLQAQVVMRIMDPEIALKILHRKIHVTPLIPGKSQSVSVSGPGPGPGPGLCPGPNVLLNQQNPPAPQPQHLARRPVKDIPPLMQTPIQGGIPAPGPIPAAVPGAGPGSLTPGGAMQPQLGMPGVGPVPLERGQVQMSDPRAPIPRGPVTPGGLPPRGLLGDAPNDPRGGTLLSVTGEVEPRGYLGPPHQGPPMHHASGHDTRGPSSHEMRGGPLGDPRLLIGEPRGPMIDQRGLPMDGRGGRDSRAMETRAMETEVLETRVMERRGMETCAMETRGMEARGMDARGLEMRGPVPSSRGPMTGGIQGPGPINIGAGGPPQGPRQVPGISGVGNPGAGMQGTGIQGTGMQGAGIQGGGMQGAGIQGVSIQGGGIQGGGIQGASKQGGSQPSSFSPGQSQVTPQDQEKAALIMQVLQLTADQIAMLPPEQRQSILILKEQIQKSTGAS

FXR2 (human) = FXR2 (human) (UniProt P51116)

binding [1]: binds
Substance: PTBP1 (from UniProt P26599 1-557)

binding (EXOSC8 (human)): binds
Substance: PABPC1 (from UniProt P11940 1-636)

binding (IGF2BP2 (human)): binds | binding (RBFOX2 (human)): binds
Substance: PCBP1 (from UniProt Q15365 1-356)

binding (PCBP1 (human)): binds | binding (QKI (human)): binds
Substance: HNRNPK (from UniProt P61978 1-463)

binding [2]: binds | binding (PTBP1 (human)): binds | binding (PTBP2 (human)): binds
Substance: wildtype RBM10 (from UniProt P98175 1-930)

binding (LARP4 (human)): binds
Substance: APOBEC3C (from UniProt Q9NRW3 1-190)

binding [3]: binds | binding (CPSF7 (human)): binds
Substance: major EJC component MAGOH (from UniProt P61326 1-146)

binding (CSTF2T (human)): binds
Substance: EWSR1 (from UniProt Q01844 1-656)

binding (FXR2 (human)): binds
Substance: FXR1 (from UniProt P51114 1-621)
